Source: patent US20060014197A1, “In vivo screening methods for identifying inhibitors of RNA polymerases” (priority 2004, published 2006)
For at least one compound, name, drawing or mass did not settle the structure.

The chains behind the UniProt entries cited, without tags or fusion partners.
UniProt P0A8V2, whole entry: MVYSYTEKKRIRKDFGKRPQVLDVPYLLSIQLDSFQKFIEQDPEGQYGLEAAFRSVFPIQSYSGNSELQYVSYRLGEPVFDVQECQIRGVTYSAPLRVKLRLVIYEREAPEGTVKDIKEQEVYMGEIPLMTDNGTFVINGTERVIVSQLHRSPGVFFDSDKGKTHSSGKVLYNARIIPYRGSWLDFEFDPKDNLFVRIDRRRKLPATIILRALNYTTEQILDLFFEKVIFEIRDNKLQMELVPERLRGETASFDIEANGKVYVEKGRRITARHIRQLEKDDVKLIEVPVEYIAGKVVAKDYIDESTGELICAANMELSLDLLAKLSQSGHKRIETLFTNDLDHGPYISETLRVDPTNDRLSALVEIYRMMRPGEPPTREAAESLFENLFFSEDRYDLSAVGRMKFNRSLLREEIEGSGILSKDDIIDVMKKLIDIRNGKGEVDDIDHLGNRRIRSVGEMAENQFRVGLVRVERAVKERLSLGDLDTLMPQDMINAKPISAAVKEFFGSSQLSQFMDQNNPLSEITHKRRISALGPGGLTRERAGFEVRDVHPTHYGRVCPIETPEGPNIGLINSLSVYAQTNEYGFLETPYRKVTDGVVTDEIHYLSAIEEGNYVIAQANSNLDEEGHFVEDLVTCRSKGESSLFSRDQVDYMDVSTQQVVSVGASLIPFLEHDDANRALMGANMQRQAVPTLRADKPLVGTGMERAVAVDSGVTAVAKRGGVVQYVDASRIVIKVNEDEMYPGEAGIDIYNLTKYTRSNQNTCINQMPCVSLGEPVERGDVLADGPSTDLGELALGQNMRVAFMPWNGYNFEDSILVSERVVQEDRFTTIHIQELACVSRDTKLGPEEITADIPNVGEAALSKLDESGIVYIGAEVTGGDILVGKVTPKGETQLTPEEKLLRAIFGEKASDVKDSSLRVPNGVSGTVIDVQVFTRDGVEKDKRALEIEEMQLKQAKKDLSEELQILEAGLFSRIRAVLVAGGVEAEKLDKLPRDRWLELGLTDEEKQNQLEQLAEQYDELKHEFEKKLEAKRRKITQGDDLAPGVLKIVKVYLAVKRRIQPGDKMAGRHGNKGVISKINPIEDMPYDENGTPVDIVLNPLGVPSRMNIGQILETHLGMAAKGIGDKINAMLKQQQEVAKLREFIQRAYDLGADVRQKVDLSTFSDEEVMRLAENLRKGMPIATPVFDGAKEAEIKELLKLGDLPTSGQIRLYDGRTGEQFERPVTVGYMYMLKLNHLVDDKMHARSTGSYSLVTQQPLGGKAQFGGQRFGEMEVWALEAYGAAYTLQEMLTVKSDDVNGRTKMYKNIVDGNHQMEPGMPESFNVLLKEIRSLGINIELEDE
UniProt P0A8V2, whole entry S531F: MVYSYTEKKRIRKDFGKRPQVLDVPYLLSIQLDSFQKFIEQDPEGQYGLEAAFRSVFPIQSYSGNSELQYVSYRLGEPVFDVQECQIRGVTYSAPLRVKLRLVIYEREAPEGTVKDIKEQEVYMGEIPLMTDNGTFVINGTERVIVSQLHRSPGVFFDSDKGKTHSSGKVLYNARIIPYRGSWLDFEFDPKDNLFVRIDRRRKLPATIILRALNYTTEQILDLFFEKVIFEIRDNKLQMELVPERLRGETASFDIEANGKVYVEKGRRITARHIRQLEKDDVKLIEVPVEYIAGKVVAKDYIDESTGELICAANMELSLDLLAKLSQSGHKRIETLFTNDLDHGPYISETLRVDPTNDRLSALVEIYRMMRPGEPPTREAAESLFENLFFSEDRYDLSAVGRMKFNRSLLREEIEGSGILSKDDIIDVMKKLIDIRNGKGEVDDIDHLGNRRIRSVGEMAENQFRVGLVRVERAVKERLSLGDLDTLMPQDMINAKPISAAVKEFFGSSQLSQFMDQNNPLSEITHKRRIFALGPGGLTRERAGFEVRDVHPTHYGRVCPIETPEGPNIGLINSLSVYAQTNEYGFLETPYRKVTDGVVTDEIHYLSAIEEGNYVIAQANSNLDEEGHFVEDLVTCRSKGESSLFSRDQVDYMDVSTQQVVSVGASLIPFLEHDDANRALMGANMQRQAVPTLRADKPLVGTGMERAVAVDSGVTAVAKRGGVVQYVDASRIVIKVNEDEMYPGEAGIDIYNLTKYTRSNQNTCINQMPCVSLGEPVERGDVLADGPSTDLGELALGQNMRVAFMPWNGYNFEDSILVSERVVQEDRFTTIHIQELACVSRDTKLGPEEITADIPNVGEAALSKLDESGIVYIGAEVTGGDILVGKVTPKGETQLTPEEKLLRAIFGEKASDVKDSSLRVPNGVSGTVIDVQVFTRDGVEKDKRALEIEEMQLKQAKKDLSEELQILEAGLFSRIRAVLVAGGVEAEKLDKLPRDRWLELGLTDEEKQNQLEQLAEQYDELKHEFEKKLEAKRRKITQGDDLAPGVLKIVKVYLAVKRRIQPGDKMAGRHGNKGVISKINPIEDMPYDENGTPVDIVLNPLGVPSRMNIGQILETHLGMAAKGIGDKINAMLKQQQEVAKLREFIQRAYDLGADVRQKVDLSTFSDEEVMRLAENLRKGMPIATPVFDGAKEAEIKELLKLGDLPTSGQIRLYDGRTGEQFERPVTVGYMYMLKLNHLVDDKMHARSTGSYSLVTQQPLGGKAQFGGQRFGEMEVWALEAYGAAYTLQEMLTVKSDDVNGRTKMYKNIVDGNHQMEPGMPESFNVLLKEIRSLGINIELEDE

Key:
[1] = molecular target: wild-type E. coli rpoB (Rif-sensitive RNAP) (Escherichia coli, UniProt P0A8V2); type: cell-based
[2] = molecular target: E. coli rpoB(S531F; Rif^r) RNAP (Escherichia coli, UniProt P0A8V2, S531F); type: cell-based; conditions: rifampicin 50 μg/ml, IPTG 1 mM, tetracycline 0.2 μg/ml; E. coli DH5alpha with pRM547 (Rif^r β); FIG. 9B column 6

SMILES: CO[C@H]1/C=C/O[C@@]2(C)Oc3c(C)c(O)c4c(O)c(c(/C=N/N5CCN(C)CC5)c(O)c4c3C2=O)NC(=O)/C(C)=C\C=C\[C@H](C)[C@H](O)[C@@H](C)[C@@H](O)[C@@H](C)[C@H](OC(C)=O)[C@@H]1C [rifampicin]
- GFP fluorescence [1]: No significant amount of GFP is detected
- GFP fluorescence [2]: GFP is detected
